Data from PubChem BioAssay AID328 (DTP/NCI, 2004).
The list is a part of this screen's results and no random one: it gathers tests that were run many times, whatever their T/C, doses with no T/C, and many T/C values between a quarter and a half above the control. Other doses and runs of a compound stand elsewhere. T/C gives the treated animals as a percentage of the vehicle group. Some doses have a count of surviving animals in place of a T/C: the source holds a T/C of zero for them, seemingly a mark for toxic or unscored doses. Some doses without a T/C left all or most animals alive at the check, yet need not have been tolerated: survival well below the control is almost never listed, so the zero probably covers shortened survival too. Survivors were counted at the toxicity check, usually on the fifth day, unless a day is given; later deaths do not show. Schedules are NCI's codes, taken here to give the interval after Q, in days (D) or hours (H), and the number of doses after X. Some entries hold several experiments; the results are listed from low to high. Where survival is the endpoint, the PubChem record calls one and a half times the control and up active, and a quarter to a half above the control has no call in these data; cut-offs in other NCI protocols can differ. Some T/C values are followed by the survivors on the day toxicity was checked, most often the fifth; where none is given, no animal had died by that day.

System: BDF1 mice, P388 leukemia ip, median survival T/C
Experiment: NCI In Vivo Anticancer Drug Screen. Data for tumor model P388 Leukemia (intraperitoneal) in B6D2F1 (BDF1) mice
Conditions: T/C endpoint: median survival time, higher T/C = longer survival
Summary of the method: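 Compound-treated tumour-bearing mice were compared with vehicle-treated controls. Survival was recorded, and the value is the treated-group measurement divided by the control-group measurement (T/C).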

[1] = dose: 50.0 mg/kg/injection, schedule: Q04DX003 (ip), vehicle: saline with Tween-80
[2] = dose: 12.5 mg/kg/injection, schedule: Q01DX009 (ip), vehicle: saline
[3] = dose: 12.5 mg/kg/injection, schedule: Q04DX003 (ip), vehicle: saline
[4] = dose: 25.0 mg/kg/injection, schedule: Q01DX009 (ip), vehicle: saline
[5] = dose: 25.0 mg/kg/injection, schedule: Q04DX003 (ip), vehicle: saline
[6] = dose: 6.25 mg/kg/injection, schedule: Q01DX009 (ip), vehicle: water
[7] = dose: 100.0 mg/kg/injection, schedule: Q01DX009 (ip), vehicle: water
[8] = dose: 400.0 mg/kg/injection, schedule: Q04DX003 (ip), vehicle: saline with Tween-80
[9] = dose: 400.0 mg/kg/injection, schedule: Q04DX003 (ip), vehicle: saline
[10] = dose: 4.5 mg/kg/injection, schedule: Q01DX009 (ip), vehicle: saline
[11] = dose: 100.0 mg/kg/injection, schedule: Q04DX003 (ip), vehicle: saline
[12] = dose: 400.0 mg/kg/injection, schedule: Q04DX003 (ip), vehicle: Klucel (hydroxypropylcellulose) (HPC)

With N=c1c2c(C(N)=O)cn(C3OC(CO)C(O)C3O)c2ncn1O (configuration not stated) the T/C (dose: 3.0 mg/kg/injection, schedule: Q04DX003 (ip), vehicle: saline with Tween-80) was 140 % of control, the T/C (dose: 4.4 mg/kg/injection, schedule: Q04DX003 (ip), vehicle: saline with Tween-80) was 130 and 145 % of control and the survivor count (dose: 4.5 mg/kg/injection, schedule: Q01DX009 (ip), vehicle: saline with Tween-80) was 6 of 6. The T/C (dose: 6.7 mg/kg/injection, schedule: Q04DX003 (ip), vehicle: saline with Tween-80) was 134 % of control, the T/C (dose: 10.0 mg/kg/injection, schedule: Q04DX003 (ip), vehicle: saline with Tween-80) was 142 and 144 % of control and the T/C (dose: 15.0 mg/kg/injection, schedule: Q04DX003 (ip), vehicle: saline with Tween-80) was 130 % of control [5 of 6 alive]. The survivor count (dose: 20.0 mg/kg/injection, schedule: Q04DX003 (ip), vehicle: saline with Tween-80) was 2 of 6, the survivor count (dose: 23.0 mg/kg/injection, schedule: Q04DX003 (ip), vehicle: saline with Tween-80) was 5 of 6 and the survivor count (dose: 35.0 mg/kg/injection, schedule: Q04DX003 (ip), vehicle: saline with Tween-80) was 1 of 6. The survivor count (dose: 40.0 mg/kg/injection, schedule: Q04DX003 (ip), vehicle: saline with Tween-80) was 0 of 6 and the survivor count [1] was 0 of 6.

With OCCN1CCN(CCCN2c3ccccc3Sc3ccc(C(F)(F)F)cc32)CC1 the T/C (dose: 1.25 mg/kg/injection, schedule: Q01DX009 (ip), vehicle: saline) was 126 % of control, the survivor count (dose: 1.87 mg/kg/injection, schedule: Q01DX009 (ip), vehicle: saline) was 4 of 6 and the survivor count (dose: 2.5 mg/kg/injection, schedule: Q01DX009 (ip), vehicle: saline) was 6 of 6. For the same compound, the survivor count (dose: 5.0 mg/kg/injection, schedule: Q01DX009 (ip), vehicle: saline) was 6 of 6, the survivor count (dose: 6.25 mg/kg/injection, schedule: Q01DX009 (ip), vehicle: saline) was 6 of 6 and the T/C (dose: 6.25 mg/kg/injection, schedule: Q04DX003 (ip), vehicle: saline) was 128 % of control. The survivor count [2] was 6 of 6, the T/C [3] was 135 % of control and the survivor count [4] was 6 of 6. The T/C [5] was 145 and 148 % of control and the survivor count (dose: 50.0 mg/kg/injection, schedule: Q01DX009 (ip), vehicle: saline) was 6 of 6.

In the case of O=S(=O)(CCl)OCCCl, the T/C (dose: 50.0 mg/kg/injection, schedule: Q01DX009 (ip), vehicle: saline with Tween-80) is reported as 139 % of control, the T/C (dose: 100.0 mg/kg/injection, schedule: Q01DX009 (ip), vehicle: saline with Tween-80) is reported as 131 % of control and the survivor count (dose: 200.0 mg/kg/injection, schedule: Q01DX009 (ip), vehicle: saline with Tween-80) is reported as 0 of 6.

For O=C1c2ccccc2C(=O)N1c1cc(OCc2ccccc2)cc(OCc2ccccc2)c1, the T/C [6] was 134 % of control, the survivor count [6] was 5 of 6 and the survivor count [7] was 6 of 6.

For COc1ccc(/C=C/c2ccc3ccccc3n2)c(OC)c1, the survivor count [8] was 6 of 6.

In the case of CC(c1ccccc1)c1ccc(O)cc1 (configuration not stated), the survivor count [9] is reported as 6 of 6.

For COc1cccc2c1C(=O)c1c(O)c3c(c(O)c1C2=O)C[C@@](O)(C(=O)CO)C[C@@H]3OC1CC(NC(C)=O)C(O)C(C)O1 (some centres not stated), the T/C (dose: 50.0 mg/kg/injection, schedule: Q04DX009 (ip), vehicle: other) was 128 % of control and the T/C (dose: 400.0 mg/kg/injection, schedule: Q04DX009 (ip), vehicle: other) was 146 % of control.

For CC1CN1CC(O)C(O)CN1CC1C (configuration not stated), the T/C (dose: 2.0 mg/kg/injection, schedule: Q04DX003 (ip), vehicle: saline) was 140 % of control, the T/C (dose: 3.0 mg/kg/injection, schedule: Q01DX009 (ip), vehicle: saline) was 133 % of control and the T/C (dose: 3.0 mg/kg/injection, schedule: Q04DX003 (ip), vehicle: saline) was 140 % of control. For the same compound, the T/C [10] was 133 % of control, the survivor count [10] was 6 of 6 and the T/C (dose: 7.5 mg/kg/injection, schedule: Q04DX003 (ip), vehicle: saline) was 131 % of control. For the same compound, the survivor count [2] was 6 of 6, the survivor count [3] was 6 of 6 and the survivor count (dose: 15.0 mg/kg/injection, schedule: Q04DX003 (ip), vehicle: saline) was 5 of 6. The survivor count [4] was 1 of 6, the survivor count [5] was 5 of 6 and the survivor count (dose: 50.0 mg/kg/injection, schedule: Q04DX003 (ip), vehicle: saline) was 1 of 6. For the same compound, the survivor count [11] was 0 of 6, the survivor count (dose: 200.0 mg/kg/injection, schedule: Q04DX003 (ip), vehicle: saline) was 0 of 6 and the survivor count [9] was 0 of 6.

For NC(=S)N/N=C\c1ncnc2nc[nH]c12, the T/C (dose: 4.0 mg/kg/injection, schedule: Q01DX009 (ip), vehicle: Klucel (hydroxypropylcellulose) (HPC)) was 130 % of control, the T/C (dose: 8.0 mg/kg/injection, schedule: Q01DX009 (ip), vehicle: Klucel (hydroxypropylcellulose) (HPC)) was 126 % of control and the T/C (dose: 16.0 mg/kg/injection, schedule: Q01DX009 (ip), vehicle: Klucel (hydroxypropylcellulose) (HPC)) was 142 % of control [4 of 6 alive]. For the same compound, the survivor count (dose: 32.0 mg/kg/injection, schedule: Q01DX009 (ip), vehicle: Klucel (hydroxypropylcellulose) (HPC)) was 1 of 6 and the survivor count (dose: 64.0 mg/kg/injection, schedule: Q01DX009 (ip), vehicle: Klucel (hydroxypropylcellulose) (HPC)) was 0 of 6 and 6 of 6.

Clc1ccc(-c2cc(=[N+]3CCC4(CC3)SSC3(CC[N+](=c5cc(-c6ccc(Cl)cc6)ss5)CC3)S4)ss2)cc1 (configuration not stated) was tested, and the T/C [7] was 128 % of control.

In the case of Oc1cccc2cccnc12.[Cu+].[O-]c1cccc2cccnc12, the survivor count (dose: 7.5 mg/kg/injection, schedule: Q01DX009 (ip), vehicle: saline) is reported as 6 of 6, the survivor count (dose: 15.0 mg/kg/injection, schedule: Q01DX009 (ip), vehicle: saline) is reported as 4 of 6 and the survivor count (dose: 22.7 mg/kg/injection, schedule: Q01DX009 (ip), vehicle: saline) is reported as 4 of 6. The survivor count (dose: 35.0 mg/kg/injection, schedule: Q01DX009 (ip), vehicle: saline) was 3 of 6 and the survivor count (dose: 35.0 mg/kg/injection, schedule: Q04DX003 (ip), vehicle: saline) was 5 of 6.

CC(/C=C/C1(C)C(C)CCC(=O)C1C)=C\Cc1c(O)c(Cl)c(C)c(C=O)c1O (configuration not stated) was tested, and the survivor count [1] was 0 of 6 and the survivor count (dose: 100.0 mg/kg/injection, schedule: Q04DX003 (ip), vehicle: saline with Tween-80) was 0 of 6.

For CC1=C[P+](c2ccccc2)(c2ccccc2)C=C(c2ccccc2)O1, the survivor count (dose: 50.0 mg/kg/injection, schedule: Q01DX005 (ip), vehicle: saline with Tween-80) was 0 of 5, the survivor count (dose: 100.0 mg/kg/injection, schedule: Q01DX005 (ip), vehicle: saline with Tween-80) was 0 of 5 and the survivor count (dose: 200.0 mg/kg/injection, schedule: Q01DX005 (ip), vehicle: saline with Tween-80) was 0 of 5.

For Cc1ccc(C)c(NC(=O)c2ccc(Cl)cc2Cl)c1, the survivor count (dose: 300.0 mg/kg/injection, schedule: Q01DX001 (ip), vehicle: other) was 6 of 6.

For Cc1nc2ccccc2c(=O)n1C(C)(C)CCl, the T/C [8] was 127 % of control.

In the case of COc1cc(NC(C)CCCN)c2nccc(C)c2c1 (configuration not stated), the survivor count (dose: 200.0 mg/kg/injection, schedule: Q01DX009 (ip), vehicle: saline) is reported as 2 of 6.

For O=C(O)C1C(C(=O)O)C2(Cl)C(Cl)=C(Cl)C1(Cl)C2(Cl)Cl.[Co] (configuration not stated), the survivor count (dose: 100.0 mg/kg/injection, schedule: Q01DX009 (ip), vehicle: Klucel (hydroxypropylcellulose) (HPC)) was 5 of 6.

With O=S1(=O)OCc2ccccc21 the survivor count (dose: 200.0 mg/kg/injection, schedule: Q01DX009 (ip), vehicle: Klucel (hydroxypropylcellulose) (HPC)) was 2 of 6 and the survivor count [12] was 4 of 6.

For [Cl][Co][Cl].[NH-]CCC[NH-].[NH-]CCC[NH-], the T/C [11] was 130 % of control.

With NC(=O)c1ccc(C(F)(F)F)cc1O the survivor count [12] was 6 of 6.

For FC(F)(F)C1=NC(=S)C(c2[nH]c(C(F)(F)F)nc2S)=N1, the T/C (dose: 200.0 mg/kg/injection, schedule: Q01DX009 (ip), vehicle: water) was 126 % of control.
